Values quoted from earlier work in US20080293820A1, “METHODS FOR IMPROVING PHYSICAL FUNCTION IN FIBROMYALGIA” (Cypress Bioscience, Inc., priority 2007, published 2008).
For at least one compound, name, drawing or mass did not settle the structure.

System: FMS patients
Details: two placebo-controlled trials; cited from earlier work

In the case of `CN(C)CCCC1(c2ccc(F)cc2)OCc2cc(C#N)ccc21` (stereo not shown) [citalopram], the “outcome of placebo-controlled trials in FMS (in words)” value is listed as “convincingly negative”.
